Measured values: patent US20090281040A1, “Methods For Treating Endoplasmic Reticulum (ER) Stress Disorders” (priority 2008, published 2009)
Results are given in words; binding and its absence hold for the method and conditions named. For part of these data: Binding seen in cells or lysates may run through a third protein. Some binding calls cover weakened binding; strength is not graded here.

The chains behind the UniProt entries cited, without tags or fusion partners.
UniProt G3V909: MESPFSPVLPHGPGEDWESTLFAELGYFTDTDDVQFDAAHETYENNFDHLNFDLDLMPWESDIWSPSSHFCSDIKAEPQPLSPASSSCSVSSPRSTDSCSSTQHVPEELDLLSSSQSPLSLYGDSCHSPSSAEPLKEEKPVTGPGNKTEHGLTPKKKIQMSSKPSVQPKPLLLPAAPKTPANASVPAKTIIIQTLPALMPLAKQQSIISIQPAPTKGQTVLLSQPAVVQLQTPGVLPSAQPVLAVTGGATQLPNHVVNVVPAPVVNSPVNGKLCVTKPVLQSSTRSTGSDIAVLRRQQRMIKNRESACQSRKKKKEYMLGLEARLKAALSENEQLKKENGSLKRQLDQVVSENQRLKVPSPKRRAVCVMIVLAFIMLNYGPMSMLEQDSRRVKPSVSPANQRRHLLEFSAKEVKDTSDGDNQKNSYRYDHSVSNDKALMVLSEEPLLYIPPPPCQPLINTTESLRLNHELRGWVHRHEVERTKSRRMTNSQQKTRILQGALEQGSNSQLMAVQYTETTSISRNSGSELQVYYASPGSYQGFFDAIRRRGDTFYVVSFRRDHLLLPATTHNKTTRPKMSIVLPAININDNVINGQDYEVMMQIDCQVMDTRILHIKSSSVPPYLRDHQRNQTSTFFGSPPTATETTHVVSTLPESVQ

How the values were obtained:
[1] = target: Activating Transcription Factor 6 (ATF6), endogenous protein of INS-1 832/13 cells (rat) (UniProt G3V909); experiment: co-immunoprecipitation with anti-WFS1 antibody and immunoblot, INS-1 832/13 cells (FIG. 6B legend)
[2] = target: Activating Transcription Factor 6 (ATF6), endogenous protein of INS-1 832/13 cells (rat) (UniProt G3V909); experiment: co-immunoprecipitation from glycerol gradient fractions of ER extracts, INS-1 832/13 cells (FIG. 8C legend)
[3] = target: Activating Transcription Factor 6 (ATF6), endogenous protein of INS-1 832/13 cells (rat) (UniProt G3V909); experiment: WFS1 immunoprecipitated from glycerol gradient fractions 10-11 of ER lysates of INS-1 832/13 cells, immunoblot (FIG. 8C, left panel)
[4] = target: Activating Transcription Factor 6 (ATF6), endogenous protein of INS-1 832/13 cells (rat) (UniProt G3V909); experiment: closing sentence on the co-immunoprecipitations and glycerol gradient fractions of INS1 832/13 cells
[5] = target: Activating Transcription Factor 6 (ATF6), endogenous protein of INS-1 832/13 cells (rat) (UniProt G3V909); experiment: co-immunoprecipitation with anti-WFS1 antibody from INS-1 832/13 cells, immunoblot with anti-ATF6; DTT (1 mM) caused time-dependent dissociation, almost complete at 3 hr
[6] = target: Activating Transcription Factor 6 (ATF6), endogenous protein of INS-1 832/13 cells (rat) (UniProt G3V909); experiment: co-immunoprecipitation and immunoblot, INS-1 832/13 cells (FIG. 6A legend)

Measured: binding

B1: Wolfram syndrome 1 (WFS1), endogenous protein of INS-1 832/13 cells (protein, rat)
chain: SGTPPPSPSGPPPPPAPQPQARARLNATTSLEQDKIEPPRAPRPQPDSSAGRSAGEATTPEPRAPHASSREGTDKAGPMKADVEIPFEEILEKAKAGDPKAQTEVGKHYLRLANDADEELNSCSAVAWLILAAKQGRREAVKLLRRCLADRKGITSENEAEVKQLSSETDLERAVRKAALVMYWKLNPKKKKQVAVSELLENVGQVNEQDGGAQPGPVPKSLQKQRRMLERLVSSESKNYIALDDFVELTKKYAKGIIPNNLFLQDEDEDEDELSGKSPEDLPLRQKVVKYPLHAIMEIKEYLIDVASKAGMHWLSTIVPTHHINALIFFFIISNLTIDFFAFFIPLVVFYLSFVSMVICTLKVFQDSKAWENFRTLTDLLLRFEPNLDVEQAEVNFGWNHLEPYIHFLLSVVFVIFSFPLASKDCIPCSELAVVSAFFTVTSYMSLSSSAEPYTRRALVTEVAAGLLSLLPTMPVDWPFLKALGQTFFTVPIGHFIILNVSLPCLLYVYLFYLFFRMAQLRNFKGTYCYLVPYLVCFMWCELSVVILLQSTGLGLVRASIGYFLFLFALPILVAGLALMGTVQFARWFLSLDLTKIMVTTVICSVPLLFRWWTKANFSVVGMVKSLTRSSIVKLILVWLTAILLFCWFYVYRSEGMKVYNSTLTWQQYGFLCGPRAWKETNMARTQILCSHLEGHRVTWTGRFKYVRVTEIDNSAESAINMLPFFLGDWMRCLYGEAYPSCSSGNTSTAEEELCRLKQLAKHPCHIKKFDRYKFEITVGMPFGTNGNRGHEEDDITKDIVLRASSEFKDVLLNLRQGSLIEFSTILEGRLGSKWPVFELKAISCLNCMTQLSPARRHVKIEQDWRSTVHGALKFAFDFFFFPFLSAA
binds: all assays above
